Structures were worked out from names or drawings and are uncertain. Some results are limits rather than exact numbers.

By UniProt entry, the sequences of proteins in these tests, tags left out. Where a name states a change or a piece, a line headed by the entry shows the natural chain unless it says otherwise.
UniProt P30613, whole entry: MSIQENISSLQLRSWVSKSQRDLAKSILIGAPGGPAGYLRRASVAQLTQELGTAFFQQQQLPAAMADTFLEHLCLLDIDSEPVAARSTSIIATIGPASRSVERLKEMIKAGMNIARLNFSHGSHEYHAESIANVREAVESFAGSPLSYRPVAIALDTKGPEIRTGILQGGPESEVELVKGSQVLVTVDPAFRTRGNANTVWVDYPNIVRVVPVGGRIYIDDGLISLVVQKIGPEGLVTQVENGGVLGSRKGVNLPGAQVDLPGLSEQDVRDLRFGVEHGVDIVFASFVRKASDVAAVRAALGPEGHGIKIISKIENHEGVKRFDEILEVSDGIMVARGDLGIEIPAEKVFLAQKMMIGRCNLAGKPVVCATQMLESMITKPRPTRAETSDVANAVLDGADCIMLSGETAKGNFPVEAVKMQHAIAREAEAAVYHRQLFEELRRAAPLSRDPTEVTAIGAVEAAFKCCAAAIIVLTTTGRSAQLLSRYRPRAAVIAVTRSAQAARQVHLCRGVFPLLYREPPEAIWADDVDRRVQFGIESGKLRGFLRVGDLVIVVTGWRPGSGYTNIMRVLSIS
UniProt P30613, whole entry R510Q: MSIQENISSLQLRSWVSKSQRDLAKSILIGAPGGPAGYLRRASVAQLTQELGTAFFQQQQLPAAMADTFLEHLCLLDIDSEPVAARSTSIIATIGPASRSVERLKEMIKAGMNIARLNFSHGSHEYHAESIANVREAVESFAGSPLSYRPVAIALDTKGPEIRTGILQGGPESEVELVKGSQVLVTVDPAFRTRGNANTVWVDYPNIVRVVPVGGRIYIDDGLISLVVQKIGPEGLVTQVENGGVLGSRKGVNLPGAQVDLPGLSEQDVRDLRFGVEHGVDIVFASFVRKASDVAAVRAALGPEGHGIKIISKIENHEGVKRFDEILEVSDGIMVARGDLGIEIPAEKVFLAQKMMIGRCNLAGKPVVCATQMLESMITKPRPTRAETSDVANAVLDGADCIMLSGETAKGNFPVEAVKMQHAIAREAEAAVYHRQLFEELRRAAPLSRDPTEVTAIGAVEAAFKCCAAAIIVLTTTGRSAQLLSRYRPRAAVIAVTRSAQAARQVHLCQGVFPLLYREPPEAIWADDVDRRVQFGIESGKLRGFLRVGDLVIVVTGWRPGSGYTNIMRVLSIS
UniProt P30613, whole entry R532W: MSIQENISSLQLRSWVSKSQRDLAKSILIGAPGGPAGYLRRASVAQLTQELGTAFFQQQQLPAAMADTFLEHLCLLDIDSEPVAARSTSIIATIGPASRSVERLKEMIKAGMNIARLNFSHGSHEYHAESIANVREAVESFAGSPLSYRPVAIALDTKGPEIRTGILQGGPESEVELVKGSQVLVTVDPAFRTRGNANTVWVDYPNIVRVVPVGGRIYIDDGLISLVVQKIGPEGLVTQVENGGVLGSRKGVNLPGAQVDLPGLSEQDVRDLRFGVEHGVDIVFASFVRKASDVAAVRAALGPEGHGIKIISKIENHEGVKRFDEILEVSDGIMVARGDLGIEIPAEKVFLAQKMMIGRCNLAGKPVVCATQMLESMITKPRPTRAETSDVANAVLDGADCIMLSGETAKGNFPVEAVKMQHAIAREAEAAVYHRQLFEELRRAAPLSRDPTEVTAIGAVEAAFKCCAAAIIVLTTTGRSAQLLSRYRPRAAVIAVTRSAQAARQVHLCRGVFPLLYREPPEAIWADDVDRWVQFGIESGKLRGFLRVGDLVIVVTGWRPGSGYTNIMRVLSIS

The target of experiment [1] is T1, wt PKR (Homo sapiens, UniProt P30613). Put plainly: PKR Mutant Assay, dose response (AC50), wild type PKR enzyme. The settings on record: read-out: PKR WT AC50. On the procedure:
(§1) • PKR or PKR mutant enzyme solution was diluted in assay buffer. • 2 μL of test compound was added into wells first, and then 180 μL reaction mix was added. • Reactions mixture with test compound was assembled except for ADP, and plates were stored for 60 minutes at room temperature. • 20 uL ADP was added to start reaction at room temperature and reaction progress was measured as changes in absorbance at 340 nm wavelength at room temperature.
(§2) Test Compound Preparation: • Test compound stock was made at 100× concentration in 100% DMSO (10 mM) • 1 to 3 dilutions were made for 11 points (i.e. 50 μl of first concentration added to 100 μl 100% DMSO to yield 3.33 mM, 50 μl of this added to 100 μl DMSO to yield 1.11 mM, and so forth) • 1 to 100 dilution into assay (2 μl in 200 μl) yielded starting concentration of 100 μM, decreasing 3 fold for 11 points.

Experiment [2] deals with PKR R510Q (Homo sapiens, UniProt P30613, R510Q). As to the kind of experiment: PKR Mutant Assay, dose response (AC50), PKR R510Q. The settings on record: read-out: PKR R510Q AC50; PKR R510Q mutant enzyme. On the procedure: as §1, §2
The target in experiment [3] is PKR R532W (Homo sapiens, UniProt P30613, R532W). Put plainly: PKR Mutant Assay, dose response (AC50), PKR R532W. The settings on record: read-out: PKR R532W AC50; PKR R532W mutant enzyme. On the procedure:
as §1, §2

Experiment [4] concerns the target T1, wt PKR. Put plainly: wt PKR cell based assay. The settings on record: read-out: PKR WT Cell Based AC50.

As usually defined, the AC50 is the midpoint of the concentration-response curve, whichever way the signal moves. Take `O=C(c1ccc(NS(=O)(=O)c2cccc3c2OCC3)cc1)N1CCC(O)(c2ccccc2Cl)CC1`: the AC50 is 1010 to 10000 nM in experiment [1], over 10000 nM in experiment [2] and 1010 to 10000 nM in experiment [3].
Regarding `O=C(c1ccc(NS(=O)(=O)c2cccc3nccnc23)cc1)N1CCC(O)(c2ncc(Cl)s2)CC1`, the figures for the AC50 in experiment [1], in experiment [2] and in experiment [3] were 101 to 1000 nM, 1010 to 10000 nM and 101 to 1000 nM, respectively.
In the case of `O=C(c1ccc(NS(=O)(=O)c2cccc3cccnc23)cc1)N1CCC(O)(c2cccc(Cl)c2)CC1`, the AC50 in experiment [1] is under 100 nM; in experiment [2], 101 to 1000 nM; in experiment [3] it was under 100 nM; in experiment [4], under 100 nM.

Source of the values: patent publication US20160046579A1, “THERAPEUTIC COMPOUNDS AND COMPOSITIONS” (AGIOS PHARMACEUTICALS, INC., priority 2013, published 2016).
